Test results from PMC6232094.
Results are given in words; binding and its absence hold for the method and conditions named.

Legend:
[1] = target: human ΔIPMK (inositol polyphosphate multikinase lacking the disordered N-terminus and the kinase-domain internal loop) (human) (UniProt Q8NFU5); assay: SEC; size exclusion chromatography of purified ΔIPMK; conditions of this observation not told; both purified
[2] = target: human ΔIPMK (inositol polyphosphate multikinase lacking the disordered N-terminus and the kinase-domain internal loop) (human) (UniProt Q8NFU5); assay: crystal structure; 2.5 Å, space group P2(1)2(1)2, two ΔIPMK monomers in the asymmetric unit; crystals from 0.1 M sodium citrate pH 3.5, 0.8 M (NH4)2SO4; both purified

B1: human ΔIPMK (inositol polyphosphate multikinase lacking the disordered N-terminus and the kinase-domain internal loop) (enzyme, UniProt Q8NFU5 70-279; Q8NFU5 373-416)
chain: DGTVLKQLQPPPRGPRELEFYNMVYAADCFDGVLLELRKYLPKYYGIWSPPTAPNDLYLKLEDVTHKFNKPCIMDVKIGQKSYDPFASSEKIQQQVSKYPLMEEIGFLVLGMRVYHVHSDSYETENQHYGRSLTKETIKDGVSRFFHNGYCLRKDAVAASIQKIEKILQWFENQKQLNFYASSLLFVYEGSSQPTTTKLNDRTLAEKFLSGGGGSGGGGSCQEIAEVEVRMIDFAHVFPSNTIDEGYVYGLKHLISVLRSILDN
- binding [1]: no binding
- binding [2]: no binding
